Data on one molecule can be found in paper doi:10.1101/2021.10.15.464621.

For assay [1], the target named is T1, polyphosphate kinase PPK, T25 fusion from plasmid pPPK12 (pKNT25) (E. coli MG1655) (UniProt P0A7B1).
T1 sequence: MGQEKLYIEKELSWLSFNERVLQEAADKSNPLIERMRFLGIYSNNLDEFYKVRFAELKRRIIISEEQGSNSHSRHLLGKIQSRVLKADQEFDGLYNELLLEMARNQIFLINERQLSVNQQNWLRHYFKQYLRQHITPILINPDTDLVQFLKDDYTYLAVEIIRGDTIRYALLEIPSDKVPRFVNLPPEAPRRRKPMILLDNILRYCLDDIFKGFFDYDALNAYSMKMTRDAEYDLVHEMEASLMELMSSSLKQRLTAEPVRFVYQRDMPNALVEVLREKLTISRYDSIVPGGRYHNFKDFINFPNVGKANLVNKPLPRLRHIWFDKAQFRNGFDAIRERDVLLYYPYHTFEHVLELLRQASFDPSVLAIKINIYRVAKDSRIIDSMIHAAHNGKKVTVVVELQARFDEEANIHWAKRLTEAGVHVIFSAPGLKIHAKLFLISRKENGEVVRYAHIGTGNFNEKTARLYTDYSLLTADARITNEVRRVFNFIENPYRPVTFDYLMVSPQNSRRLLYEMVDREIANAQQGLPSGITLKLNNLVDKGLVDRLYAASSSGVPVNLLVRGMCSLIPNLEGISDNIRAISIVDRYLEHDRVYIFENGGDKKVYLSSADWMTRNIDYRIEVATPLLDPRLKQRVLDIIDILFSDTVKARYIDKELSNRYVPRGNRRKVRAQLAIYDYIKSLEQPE
The assay can be described thus: two-hybrid.

Assay [2] addresses T2, polyphosphate kinase PPK, T25 fusion from plasmid pPPK13 (pKT25) (E. coli MG1655) (UniProt P0A7B1).
T2 sequence: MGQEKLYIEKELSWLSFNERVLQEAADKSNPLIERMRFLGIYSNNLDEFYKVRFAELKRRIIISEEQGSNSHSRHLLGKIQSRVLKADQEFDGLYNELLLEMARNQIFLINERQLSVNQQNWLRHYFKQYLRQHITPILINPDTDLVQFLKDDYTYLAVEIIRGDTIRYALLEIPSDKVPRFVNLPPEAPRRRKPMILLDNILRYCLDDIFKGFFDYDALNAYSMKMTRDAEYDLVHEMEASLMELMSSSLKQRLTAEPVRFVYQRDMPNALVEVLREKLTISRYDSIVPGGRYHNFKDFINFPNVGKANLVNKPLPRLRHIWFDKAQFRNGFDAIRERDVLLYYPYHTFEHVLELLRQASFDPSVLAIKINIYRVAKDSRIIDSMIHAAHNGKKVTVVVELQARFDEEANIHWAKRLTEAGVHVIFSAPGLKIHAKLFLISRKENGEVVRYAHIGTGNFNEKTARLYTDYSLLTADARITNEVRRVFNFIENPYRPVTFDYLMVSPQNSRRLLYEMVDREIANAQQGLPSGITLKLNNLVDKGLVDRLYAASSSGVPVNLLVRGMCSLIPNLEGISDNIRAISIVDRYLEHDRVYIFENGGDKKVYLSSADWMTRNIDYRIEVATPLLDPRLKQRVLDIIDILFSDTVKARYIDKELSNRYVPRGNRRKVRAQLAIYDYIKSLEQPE
The assay can be described thus: two-hybrid.

Results are given in words; binding and its absence hold for the method and conditions named. Sequences can lack the tags named with a protein.

B1: nitrogen phosphotransferase regulator PtsN (EIIA^Ntr), T18 fusion from plasmid pPTSN5 (protein, UniProt P69829 1-163)
chain: MTNNDTTLQLSSVLNRECTRSRVHCQSKKRALEIISELAAKQLSLPPQVVFEAILTREKMGSTGIGNGIAIPHGKLEEDTLRAVGVFVQLETPIAFDAIDNQPVDLLFALLVPADQTKTHLHTLSLVAKRLADKTICRRLRAAQSDEELYQIITDTEGTPDEA
As for B1, the binding result in assay [1] and in assay [2] was “no binding” in each case.
